Experimental data as given in patent US5770565A, “Peptides for reducing or inhibiting bone resorption” (priority 1994, dated 1998).
At least one peptide structure holds a part that was inferred or is arguable (an end, a ring closure or a residue). Some entries repeat one wording, which the source may state once for all of them. Where a SMILES comes first, the peptide text is derived from it. Bridges are numbered along the chain shown (N, C = ends). [ ]: non-standard residue; d: D form. Tic = O=C(O)[C@@H]1Cc2ccccc2CN1; Pen = CC(C)(S)[C@H](N)C(=O)O; Phg = N[C@H](C(=O)O)c1ccccc1

molecular target: T1, αV β3 receptor (Homo sapiens, UniProt P05106+P06756); test: αV β3 ELISA (competitive receptor binding); details: αV β3 ELISA or JY cells vs αV β5 and α5 β1 ELISAs, FIG. 2
T1 construct: The αV β3 receptor was purified from octylglucopyranoside-extracted human placenta; from tissue; host or cells: human placenta
Description: Peptide binding to purified human αV β5 and αV β3, which are VnR's, and to α5 β1, which is a FnR, was determined using competitive ELISA assays as described below.
Peptide binding to purified αV β3 receptor was determined by using a competitive ELISA, in which αV β3 receptor was immobilized and the binding of solubilized VN, in the presence of various concentrations of peptide analogue, was detected using a monoclonal mouse IgG anti-VN antibody and a labelled anti-mouse IgG conjugate. A monoclonal anti-VN antibody can be obtained using routine methods (see, for example, Harlow and Lane, Antibodies: A laboratory manual (Cold Spring Harbor Laboratory Press 1988), which is incorporated herein by reference).
96 well microtiter plates were coated overnight at RT with 100 μl/well of αV β3 receptor (0.5 μg/ml in 1×TBS, 4 mM octylglucoside, 1 mM CaCl2). The wells were blocked with 200 μl/well of 1% BSA in 1×TBS, 1 mM CaCl2 for at least 30 min. The plates were washed 2× with 1×TBS, 1 mM CaCl2. 50 μl peptide in 1×TBS, 1 mM CaCl2, 0.05% "TWEEN 20" polyoxyethylenesorbitan monolaurate was added in 10-fold serial dilutions. 50 μl of Vn in the same buffer then was added to each well.
The plates were incubated for 3 hr at RT, then washed 3× with 1×TBS, 0.05% "TWEEN 20" polyoxyethylenesorbitan monolaurate. 100 μof 8E6 (Telios) diluted to 1:6000 in 1×TBS, 0.05% "TWEEN 20" polyoxyethylenesorbitan monolaurate was added to the wells and the plates were incubated for 1 hr at RT. Plates were washed 3× with 1×TBS, 0.05% "TWEEN 20" polyoxyethylenesorbitan monolaurate. Affinity purified goat anti-mouse IgG conjugated to horseradish peroxidase (100μl/well; BioRad; Hercules Calif.) was added to each well and incubated for 1 hr at RT. Plates were washed 3× with 1×TBS, 0.05% "TWEEN 20" polyoxyethylenesorbitan monolaurate. 100 μl/well of substrate mixture (10 mg O-phenylenediamine in 25 ml 0.1M citrate-phosphate buffer, pH 5.0, 6 μl 30% H2 O2) was added to the plates and allowed to develop. […] The plates were read at 490 nm and the data analyzed by four parameter fit. […]

**Q.** `CC(=O)N[C@@H]1C(=O)N[C@@H](Cc2ccccc2)C(=O)N[C@@H](C)C(=O)N[C@@H](CCCNC(=N)N)C(=O)NCC(=O)N[C@@H](CC(=O)O)C(=O)N[C@@H](CC(=O)O)C(=O)N[C@@H](c2ccccc2)C(=O)N[C@H](C(N)=O)CSSC1(C)C` [compound 84] (Ac-[Pen]FARGDD[Phg]C-NH2; disulfide 1-9) was tested. Which “receptor selectivity for αV β3 (IC50 αV β3 binding compared to αV β5 and α5 β1 binding)” value (“receptor selectivity for αV β3” below) did it give?
**A.** The value was “receptor selective for αV β3”.

**Q.** Which “receptor selectivity for αV β3” value does the source give for `CC(C)[C@@H]1NC(=O)[C@H](CC(=O)O)NC(=O)[C@H](CC(=O)O)NC(=O)CNC(=O)[C@H](CCCNC(=N)N)NC(=O)[C@H](C)NC(=O)[C@H](C)NC(=O)[C@@H](NC(=O)CN)C(C)(C)SSC[C@@H](C(=O)N[C@@H](C)C(N)=O)NC1=O` [compound 814] (H-G[Pen]AARGDDVCA-NH2; disulfide 2-10) here?
**A.** Its value is “receptor selective for αV β3”.

**Q.** With `CC(C)[C@@H]1NC(=O)[C@H](CC(=O)O)NC(=O)[C@H](CC(=O)O)NC(=O)CNC(=O)[C@H](CCCNC(=N)N)NC(=O)CNC(=O)C[C@@H](C(N)=O)NC1=O` [peptide 368] (GRGDDVD-NH2; lactam N-7) as the compound, how does the “receptor selectivity for αV β3” value read?
**A.** The value was “receptor selective for αV β3”.

system: αV β3 integrin, osteoclasts; test: series of assays of Example II for potency and selectivity (summary, FIG. 2); details: not given
Source text: Peptides of the RGDNTic (SEQ ID NO: 56) pharmacophore group are characterized, in general, as having increased potency, whereas the peptides of the pharmacophore RGDDV (SEQ ID NO: 1) group generally have higher receptor selectivity. […] As used herein, the term "potency" or "potent" means that a peptide of the invention is active at a relatively low concentration in the assays described in Examples II and III. A potent peptide of the invention can be identified, for example, using the assays described in Examples II and III.
Selectivity can be due, for example, to the ability of a peptide of the invention to bind to αV β3 with greater affinity than it binds to other integrins. Thus, in addition to having selectivity, for example, for osteoclast binding to a matrix, a peptide of the invention also can display receptor selectivity and, therefore, more specifically alter receptor-mediated binding to a matrix. As used herein, the term "receptor selectivity" means that a peptide of the invention can bind to one receptor with greater affinity than it can bind to another receptor.

**Q.** How did the “receptor selectivity (summary classification)” value turn out when `CC[C@H](C)[C@@H]1NC(=O)[C@@H](NC(=O)CN)C(C)(C)SSC[C@@H](C(=O)N[C@@H](C)C(=O)O)NC(=O)[C@H](CC(C)C)NC(=O)[C@H](CC(=O)O)NC(=O)[C@H](CC(=O)O)NC(=O)CNC(=O)[C@H](CCCNC(=N)N)NC(=O)[C@H](C)NC1=O` [compound 448] (H-G[Pen]IARGDDLCA-OH; disulfide 2-10) was run?
**A.** The value was “particularly receptor selective”.

**Q.** How did the “potency (summary classification)” value turn out when `CC(=O)N[C@@H]1C(=O)N[C@@H](C)C(=O)N[C@@H](C)C(=O)N[C@@H](CCCNC(=N)N)C(=O)NCC(=O)N[C@@H](CC(=O)O)C(=O)N[C@@H](CC(N)=O)C(=O)N2Cc3ccccc3C[C@H]2C(=O)N[C@H](C(N)=O)CSSC1(C)C` [compound 832] (Ac-[Pen]AARGDN[Tic]C-NH2; disulfide 1-9) was run?
**A.** Its value is “particularly potent”.

**Q.** With `CC(=O)N[C@H]1CSSC[C@@H](C(=O)N[C@@H](CCCCN)C(N)=O)NC(=O)[C@@H]2Cc3ccccc3CN2C(=O)[C@H](CC(N)=O)NC(=O)[C@H](CC(=O)O)NC(=O)CNC(=O)[C@H](CCCNC(=N)N)NC(=O)[C@H](C)NC(=O)[C@H](C)NC1=O` [compound 431] (Ac-CAARGDN[Tic]CK-NH2; disulfide 1-9) as the compound, how does the “potency (summary classification)” value read?
**A.** The value was “particularly potent”.

**Q.** `C[C@H](NC(=O)[C@@H]1CSSC[C@H](NC(=O)CN)C(=O)N[C@@H](CCC(=O)O)C(=O)N2CCC[C@H]2C(=O)N[C@@H](CCCNC(=N)N)C(=O)NCC(=O)N[C@@H](CC(=O)O)C(=O)N[C@@H](CC(N)=O)C(=O)N2Cc3ccccc3C[C@H]2C(=O)N1)C(N)=O` [compound 199] (H-GCEPRGDN[Tic]CA-NH2; disulfide 2-10) was tested. Which “potency (summary classification)” value did it give?
**A.** Its value is “particularly potent”.

**Q.** Which “potency (summary classification)” value does the source give for `CC(=O)N[C@@H]1C(=O)N[C@@H](Cc2ccccc2)C(=O)N[C@@H](C)C(=O)N[C@@H](CCCNC(=N)N)C(=O)NCC(=O)N[C@@H](CC(=O)O)C(=O)N[C@@H](CC(N)=O)C(=O)N2Cc3ccccc3C[C@H]2C(=O)N[C@H](C(N)=O)CSSC1(C)C` [compound 373] (Ac-[Pen]FARGDN[Tic]C-NH2; disulfide 1-9) here?
**A.** Its value is “particularly potent”.

**Q.** How did the “potency (summary classification)” value turn out when `CC(=O)N[C@H]1CSSC[C@@H](C(N)=O)NC(=O)[C@@H]2Cc3ccccc3CN2C(=O)[C@H]([C@@H](C)O)NC(=O)[C@H](CC(=O)O)NC(=O)CNC(=O)[C@H](CCCNC(=N)N)NC(=O)[C@H](C)NC(=O)[C@H](C)NC1=O` [compound 206] (Ac-CAARGDT[Tic]C-NH2; disulfide 1-9) was run?
**A.** Its value is “particularly potent”.

**Q.** How did the “potency and selectivity together (summary classification)” value turn out when `CC(C)[C@@H]1NC(=O)[C@H](CC(=O)O)NC(=O)[C@H](CC(=O)O)NC(=O)CNC(=O)[C@H](CCCNC(=N)N)NC(=O)[C@H](C)NC(=O)[C@H](C)NC(=O)[C@@H](NC(=O)CN)C(C)(C)SSC[C@@H](C(=O)N[C@@H](C)C(N)=O)NC1=O` [compound 814] (H-G[Pen]AARGDDVCA-NH2; disulfide 2-10) was run?
**A.** The value was “both potent and selective”.

**Q.** What about the “receptor selectivity (summary classification)” value of the same compound?
**A.** Its value is “particularly receptor selective”.

**Q.** How did the “potency (summary classification)” value turn out when `C[C@@H]1NC(=O)CNC(=O)CC[C@@H](C(N)=O)NC(=O)[C@@H]2Cc3ccccc3CN2C(=O)[C@H](CO)NC(=O)[C@H](CC(=O)O)NC(=O)CNC(=O)[C@H](CCCNC(=N)N)NC(=O)[C@H](C)NC1=O` [compound 110] (GAARGDS[Tic]E-NH2; lactam N-9) was run?
**A.** The value was “particularly potent”.

**Q.** How did the “potency (summary classification)” value turn out when `COc1ccc(C[C@@H]2NC(=O)[C@@H](NC(C)=O)C(C)(C)SSC[C@@H](C(N)=O)NC(=O)[C@@H]3Cc4ccccc4CN3C(=O)[C@H](CC(N)=O)NC(=O)[C@H](CC(=O)O)NC(=O)CNC(=O)[C@H](CCCNC(=N)N)NC(=O)[C@H](C)NC2=O)cc1` [compound 183] (Ac-[Pen]Y(Me)ARGDN[Tic]C-NH2; disulfide 1-9) was run?
**A.** Its value is “particularly potent”.

**Q.** How did the “potency (summary classification)” value turn out when `CC(=O)N[C@H]1CSSC[C@@H](C(N)=O)NC(=O)[C@@H]2Cc3ccccc3CN2C(=O)[C@H](CO)NC(=O)[C@H](CC(=O)O)NC(=O)CNC(=O)[C@H](CCCNC(=N)N)NC(=O)[C@H](C)NC(=O)[C@H](C)NC1=O` [compound 196] (Ac-CAARGDS[Tic]C-NH2; disulfide 1-9) was run?
**A.** Its value is “particularly potent”.

**Q.** Which “potency (summary classification)” value does the source give for `CC(=O)N[C@H]1CSSC[C@@H](C(=O)N[C@@H](C)C(=O)N[C@@H](CCCCN)C(N)=O)NC(=O)[C@@H]2Cc3ccccc3CN2C(=O)[C@H](CO)NC(=O)[C@H](CC(=O)O)NC(=O)CNC(=O)[C@H](CCCNC(=N)N)NC1=O` [compound 429] (Ac-CRGDS[Tic]CAK-NH2; disulfide 1-7) here?
**A.** The value was “particularly potent”.

**Q.** Which results are given for `CC(=O)N[C@H]1CSSC[C@@H](C(N)=O)NC(=O)[C@@H]2Cc3ccccc3CN2C(=O)[C@H](CC(N)=O)NC(=O)[C@H](CC(=O)O)NC(=O)CNC(=O)[C@H](CCCNC(=N)N)NC(=O)[C@@H]2CCCN2C(=O)[C@H](CCC(=O)O)NC1=O` [compound 108] (Ac-CEPRGDN[Tic]C-NH2; disulfide 1-9)?
**A.** potency (summary classification): particularly potent; potency and selectivity together (summary classification): both potent and selective

**Q.** `CC(=O)N[C@@H]1C(=O)N[C@@H](Cc2ccccc2)C(=O)N[C@@H](C)C(=O)N[C@@H](CCCNC(=N)N)C(=O)NCC(=O)N[C@@H](CC(=O)O)C(=O)N[C@@H](CO)C(=O)N2Cc3ccccc3C[C@H]2C(=O)N[C@H](C(N)=O)CSSC1(C)C` [compound 202] (Ac-[Pen]FARGDS[Tic]C-NH2; disulfide 1-9) was tested. Which “potency (summary classification)” value did it give?
**A.** Its value is “particularly potent”.

**Q.** Which results are given for `CC(C)[C@@H]1NC(=O)[C@H](CC(=O)O)NC(=O)[C@H](CC(=O)O)NC(=O)CNC(=O)[C@H](CCCNC(=N)N)NC(=O)CNC(=O)C[C@@H](C(N)=O)NC1=O` [peptide 368] (GRGDDVD-NH2; lactam N-7)?
**A.** potency and selectivity together (summary classification): both potent and selective; receptor selectivity (summary classification): particularly receptor selective

**Q.** How did the “potency (summary classification)” value turn out when `CC(=O)N[C@H]1CSSC[C@@H](C(N)=O)NC(=O)[C@@H]2Cc3ccccc3CN2C(=O)[C@H]([C@@H](C)O)NC(=O)[C@H](CC(=O)O)NC(=O)CNC(=O)[C@H](CCCNC(=N)N)NC1=O` [compound 437] (Ac-CRGDT[Tic]C-NH2; disulfide 1-7) was run?
**A.** The value was “particularly potent”.

**Q.** With `CC(=O)N[C@H]1CSSC(C)(C)[C@@H](C(N)=O)NC(=O)[C@@H]2Cc3ccccc3CN2C(=O)[C@H](CC(N)=O)NC(=O)[C@H](CC(=O)O)NC(=O)CNC(=O)[C@H](CCCNC(=N)N)NC1=O` [compound 441] (Ac-CRGDN[Tic][Pen]-NH2; disulfide 1-7) as the compound, how does the “potency (summary classification)” value read?
**A.** The value was “particularly potent”.
